Results: paper PMC11927589
These are yes or no findings as the source states them, for the method shown. Binding seen in cells or lysates may run through a third protein. Some entries that bind do so weakly or less than the wild type.

Amino acid sequences for entries named in this document (tags omitted). Residues count along the entry.
UniProt Q8BWG9: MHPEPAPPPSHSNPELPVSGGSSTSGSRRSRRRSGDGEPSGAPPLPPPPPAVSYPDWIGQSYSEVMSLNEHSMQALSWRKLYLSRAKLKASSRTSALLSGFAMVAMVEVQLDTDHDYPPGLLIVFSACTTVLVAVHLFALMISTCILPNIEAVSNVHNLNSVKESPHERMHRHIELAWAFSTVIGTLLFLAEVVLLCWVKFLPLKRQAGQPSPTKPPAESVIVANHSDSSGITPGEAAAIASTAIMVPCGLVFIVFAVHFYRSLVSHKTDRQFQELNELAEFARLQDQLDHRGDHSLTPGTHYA
UniProt P70302, residues 23-685: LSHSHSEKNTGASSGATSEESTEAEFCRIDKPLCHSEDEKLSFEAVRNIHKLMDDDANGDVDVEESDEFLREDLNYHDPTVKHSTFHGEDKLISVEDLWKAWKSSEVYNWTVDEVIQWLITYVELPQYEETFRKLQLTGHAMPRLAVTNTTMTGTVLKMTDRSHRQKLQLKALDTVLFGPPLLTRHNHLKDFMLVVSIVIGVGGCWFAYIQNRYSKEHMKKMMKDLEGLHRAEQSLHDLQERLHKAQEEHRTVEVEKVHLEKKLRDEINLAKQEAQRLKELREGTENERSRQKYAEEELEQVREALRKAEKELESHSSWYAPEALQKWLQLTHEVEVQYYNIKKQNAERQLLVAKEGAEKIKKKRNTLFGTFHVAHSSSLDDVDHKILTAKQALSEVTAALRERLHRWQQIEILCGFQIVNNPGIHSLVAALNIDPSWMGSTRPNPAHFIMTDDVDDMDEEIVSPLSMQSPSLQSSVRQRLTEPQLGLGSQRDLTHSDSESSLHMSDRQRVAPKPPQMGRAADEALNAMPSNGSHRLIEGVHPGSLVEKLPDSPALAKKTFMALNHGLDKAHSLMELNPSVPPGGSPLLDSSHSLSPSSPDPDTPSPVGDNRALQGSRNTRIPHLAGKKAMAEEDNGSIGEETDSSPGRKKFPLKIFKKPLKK

Target: Orai1 (mouse (endogenous in mouse neutrophils)) (UniProt Q8BWG9)
Assay: proximity ligation; Duolink In Situ Red Starter Kit Mouse/Rabbit; endogenous proteins in purified mouse neutrophils adhered to PLL, fixed, permeabilized, primary antibody pairs overnight; WT compared with Stim1/2-deficient neutrophils

binding: binds
Substance: Stim1 (stromal interaction molecule 1) (from UniProt P70302 23-685)
